± gives the standard deviation of the averaged measurements. The entries are a selection whose mix differs from that of the whole data set. Most values lie at the level of the controls, where differences are scatter.
Compound: Nc1ncnc2c1ncn2[C@@H]1O[C@H](COP(=O)(O)OP(=O)(O)OP(=O)(O)O)[C@@H](O)[C@H]1O [adenosine triphosphate]
Assay: NP40-soluble protein abundance relative to vehicle (solubility fold change) (ratio); higher = more soluble protein in presence of ATP
Summary of the method: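 Values are fold changes against the detergent-processed vehicle, based on vsn-normalised intensities. Jurkat crude lysate was treated at eight concentrations from 0.1 to 10 mM (10 min at room temperature, then 3 min at 37 °C), solubilised with 0.8% NP40 and benzonase, ultracentrifuged and analysed by TMT-labelled LC-MS/MS over three independent experiments.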

By UniProt entry, the sequences of proteins in these tests, tags left out. Where a name states a change or a piece, a line headed by the entry shows the natural chain unless it says otherwise.
UniProt Q9BPY3: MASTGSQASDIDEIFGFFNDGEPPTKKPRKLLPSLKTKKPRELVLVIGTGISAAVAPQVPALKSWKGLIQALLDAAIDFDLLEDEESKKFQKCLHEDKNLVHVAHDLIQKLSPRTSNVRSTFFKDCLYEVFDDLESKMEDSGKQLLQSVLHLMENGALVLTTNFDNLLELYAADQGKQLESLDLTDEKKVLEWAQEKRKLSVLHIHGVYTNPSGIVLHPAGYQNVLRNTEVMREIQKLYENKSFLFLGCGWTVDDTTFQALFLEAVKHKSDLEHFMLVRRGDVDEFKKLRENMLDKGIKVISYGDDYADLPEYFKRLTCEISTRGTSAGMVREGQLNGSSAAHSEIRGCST
UniProt Q13889: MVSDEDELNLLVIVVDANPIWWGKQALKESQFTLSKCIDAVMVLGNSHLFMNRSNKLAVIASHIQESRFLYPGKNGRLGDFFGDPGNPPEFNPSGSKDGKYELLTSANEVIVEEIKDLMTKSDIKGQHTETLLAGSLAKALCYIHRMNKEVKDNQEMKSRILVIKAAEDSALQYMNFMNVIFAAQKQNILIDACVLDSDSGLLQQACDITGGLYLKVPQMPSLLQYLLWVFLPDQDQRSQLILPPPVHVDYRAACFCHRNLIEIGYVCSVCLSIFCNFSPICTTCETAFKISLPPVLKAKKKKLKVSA
UniProt O00559: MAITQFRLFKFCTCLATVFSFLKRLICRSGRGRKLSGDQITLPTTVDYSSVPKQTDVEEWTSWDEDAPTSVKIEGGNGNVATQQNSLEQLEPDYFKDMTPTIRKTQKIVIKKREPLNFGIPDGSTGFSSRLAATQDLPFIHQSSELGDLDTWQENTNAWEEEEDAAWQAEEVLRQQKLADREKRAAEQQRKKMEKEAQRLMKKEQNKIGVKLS
UniProt Q7L5Y9: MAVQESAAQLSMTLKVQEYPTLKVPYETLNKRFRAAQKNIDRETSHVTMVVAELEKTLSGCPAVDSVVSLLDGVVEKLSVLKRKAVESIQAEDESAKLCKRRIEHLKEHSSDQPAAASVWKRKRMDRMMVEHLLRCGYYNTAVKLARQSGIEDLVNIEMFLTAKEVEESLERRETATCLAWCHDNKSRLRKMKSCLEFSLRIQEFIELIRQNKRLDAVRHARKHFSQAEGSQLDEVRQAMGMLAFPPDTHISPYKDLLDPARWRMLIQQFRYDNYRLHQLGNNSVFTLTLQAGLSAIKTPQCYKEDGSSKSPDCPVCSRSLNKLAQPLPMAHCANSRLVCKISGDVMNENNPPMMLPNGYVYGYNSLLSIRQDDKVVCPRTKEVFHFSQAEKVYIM
UniProt Q9NZD2: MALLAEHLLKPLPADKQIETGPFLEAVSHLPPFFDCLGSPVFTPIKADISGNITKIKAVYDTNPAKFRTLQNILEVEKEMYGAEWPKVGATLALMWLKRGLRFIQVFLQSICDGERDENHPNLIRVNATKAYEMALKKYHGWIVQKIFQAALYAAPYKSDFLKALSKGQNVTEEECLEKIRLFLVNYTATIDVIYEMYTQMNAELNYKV
UniProt Q14699: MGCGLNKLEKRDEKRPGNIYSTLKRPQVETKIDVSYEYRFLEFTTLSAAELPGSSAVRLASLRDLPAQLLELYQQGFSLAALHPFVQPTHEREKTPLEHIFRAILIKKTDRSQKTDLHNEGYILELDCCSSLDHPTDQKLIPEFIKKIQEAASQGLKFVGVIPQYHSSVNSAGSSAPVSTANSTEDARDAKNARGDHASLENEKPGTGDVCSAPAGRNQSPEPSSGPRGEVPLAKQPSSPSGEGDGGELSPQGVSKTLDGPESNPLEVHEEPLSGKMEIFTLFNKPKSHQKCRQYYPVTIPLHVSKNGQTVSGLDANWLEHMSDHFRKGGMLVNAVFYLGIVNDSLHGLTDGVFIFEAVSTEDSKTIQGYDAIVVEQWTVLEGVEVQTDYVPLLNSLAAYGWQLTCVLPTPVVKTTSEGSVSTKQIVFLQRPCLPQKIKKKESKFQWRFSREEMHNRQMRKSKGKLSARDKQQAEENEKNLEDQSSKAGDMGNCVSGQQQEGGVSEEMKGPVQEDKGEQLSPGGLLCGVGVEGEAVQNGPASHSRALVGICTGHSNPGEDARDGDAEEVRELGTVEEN
UniProt O75376, whole entry: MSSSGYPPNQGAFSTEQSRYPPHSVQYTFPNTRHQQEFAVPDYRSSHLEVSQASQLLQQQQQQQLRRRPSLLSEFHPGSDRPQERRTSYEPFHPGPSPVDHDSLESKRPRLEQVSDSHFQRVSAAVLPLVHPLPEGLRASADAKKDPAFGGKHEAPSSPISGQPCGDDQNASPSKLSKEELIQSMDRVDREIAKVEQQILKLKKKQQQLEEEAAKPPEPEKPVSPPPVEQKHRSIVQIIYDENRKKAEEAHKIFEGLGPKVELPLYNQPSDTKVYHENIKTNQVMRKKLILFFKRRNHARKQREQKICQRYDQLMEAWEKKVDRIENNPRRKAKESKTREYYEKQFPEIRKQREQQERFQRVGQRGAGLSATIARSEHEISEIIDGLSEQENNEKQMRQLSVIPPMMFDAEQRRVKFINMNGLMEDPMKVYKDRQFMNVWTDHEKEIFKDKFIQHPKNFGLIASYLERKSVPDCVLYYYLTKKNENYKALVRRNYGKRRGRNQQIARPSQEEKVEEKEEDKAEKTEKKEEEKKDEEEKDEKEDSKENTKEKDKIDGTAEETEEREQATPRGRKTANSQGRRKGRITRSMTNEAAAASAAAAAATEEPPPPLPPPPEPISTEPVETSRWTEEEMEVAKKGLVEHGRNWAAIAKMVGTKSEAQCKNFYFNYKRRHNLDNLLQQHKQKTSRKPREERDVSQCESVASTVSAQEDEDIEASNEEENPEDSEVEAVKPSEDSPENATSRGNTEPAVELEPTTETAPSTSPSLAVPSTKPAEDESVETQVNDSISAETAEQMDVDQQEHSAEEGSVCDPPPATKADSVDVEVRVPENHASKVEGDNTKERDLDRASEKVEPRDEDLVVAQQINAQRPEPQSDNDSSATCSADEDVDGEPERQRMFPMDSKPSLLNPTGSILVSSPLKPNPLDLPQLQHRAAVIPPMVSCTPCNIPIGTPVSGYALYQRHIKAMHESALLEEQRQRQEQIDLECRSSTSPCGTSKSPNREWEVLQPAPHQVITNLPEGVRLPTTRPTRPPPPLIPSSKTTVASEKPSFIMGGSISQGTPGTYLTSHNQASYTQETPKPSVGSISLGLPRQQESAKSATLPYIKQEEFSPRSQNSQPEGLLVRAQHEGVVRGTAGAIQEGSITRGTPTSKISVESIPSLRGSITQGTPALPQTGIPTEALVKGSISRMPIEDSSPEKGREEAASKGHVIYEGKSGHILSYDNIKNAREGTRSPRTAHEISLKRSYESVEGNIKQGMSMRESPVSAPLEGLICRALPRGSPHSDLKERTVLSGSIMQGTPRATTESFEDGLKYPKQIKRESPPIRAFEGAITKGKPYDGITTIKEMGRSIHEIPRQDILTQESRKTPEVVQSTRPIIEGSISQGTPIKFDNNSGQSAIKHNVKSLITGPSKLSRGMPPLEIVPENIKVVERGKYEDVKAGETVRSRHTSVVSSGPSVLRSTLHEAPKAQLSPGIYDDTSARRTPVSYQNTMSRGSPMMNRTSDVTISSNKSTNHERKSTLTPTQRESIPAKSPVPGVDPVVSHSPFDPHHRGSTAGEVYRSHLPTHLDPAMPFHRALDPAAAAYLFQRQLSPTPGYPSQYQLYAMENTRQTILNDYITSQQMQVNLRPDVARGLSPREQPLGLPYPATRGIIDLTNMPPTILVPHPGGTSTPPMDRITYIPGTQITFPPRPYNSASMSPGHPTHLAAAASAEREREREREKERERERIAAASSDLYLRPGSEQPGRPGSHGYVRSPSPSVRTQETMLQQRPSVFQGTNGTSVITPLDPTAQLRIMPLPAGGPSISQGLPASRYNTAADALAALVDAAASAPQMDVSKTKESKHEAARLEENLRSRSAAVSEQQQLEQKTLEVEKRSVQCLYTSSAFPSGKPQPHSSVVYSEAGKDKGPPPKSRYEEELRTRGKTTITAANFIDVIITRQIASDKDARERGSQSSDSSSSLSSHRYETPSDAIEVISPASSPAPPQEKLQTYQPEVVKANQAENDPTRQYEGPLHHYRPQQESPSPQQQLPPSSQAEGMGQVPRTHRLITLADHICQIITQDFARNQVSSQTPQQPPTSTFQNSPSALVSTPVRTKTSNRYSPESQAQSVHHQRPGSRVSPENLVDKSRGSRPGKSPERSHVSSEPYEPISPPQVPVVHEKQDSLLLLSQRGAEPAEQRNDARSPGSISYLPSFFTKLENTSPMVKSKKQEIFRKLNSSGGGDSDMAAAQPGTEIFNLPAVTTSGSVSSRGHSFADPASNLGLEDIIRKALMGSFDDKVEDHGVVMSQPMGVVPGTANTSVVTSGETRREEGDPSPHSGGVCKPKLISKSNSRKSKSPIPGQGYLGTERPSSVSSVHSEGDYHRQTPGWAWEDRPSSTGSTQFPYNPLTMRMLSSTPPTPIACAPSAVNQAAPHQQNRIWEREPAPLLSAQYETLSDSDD
UniProt P50579: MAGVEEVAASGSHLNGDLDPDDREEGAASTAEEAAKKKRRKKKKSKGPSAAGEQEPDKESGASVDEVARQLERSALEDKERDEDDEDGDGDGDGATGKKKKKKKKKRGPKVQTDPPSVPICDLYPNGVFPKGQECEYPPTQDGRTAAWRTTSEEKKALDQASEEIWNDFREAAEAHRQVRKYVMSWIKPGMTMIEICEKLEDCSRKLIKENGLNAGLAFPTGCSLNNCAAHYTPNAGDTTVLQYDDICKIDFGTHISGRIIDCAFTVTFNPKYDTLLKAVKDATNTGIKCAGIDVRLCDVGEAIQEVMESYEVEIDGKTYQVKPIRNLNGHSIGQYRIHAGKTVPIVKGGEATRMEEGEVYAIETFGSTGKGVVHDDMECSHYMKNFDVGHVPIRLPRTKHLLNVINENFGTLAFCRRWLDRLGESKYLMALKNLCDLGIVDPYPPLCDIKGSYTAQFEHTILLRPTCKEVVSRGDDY
UniProt Q53GL7: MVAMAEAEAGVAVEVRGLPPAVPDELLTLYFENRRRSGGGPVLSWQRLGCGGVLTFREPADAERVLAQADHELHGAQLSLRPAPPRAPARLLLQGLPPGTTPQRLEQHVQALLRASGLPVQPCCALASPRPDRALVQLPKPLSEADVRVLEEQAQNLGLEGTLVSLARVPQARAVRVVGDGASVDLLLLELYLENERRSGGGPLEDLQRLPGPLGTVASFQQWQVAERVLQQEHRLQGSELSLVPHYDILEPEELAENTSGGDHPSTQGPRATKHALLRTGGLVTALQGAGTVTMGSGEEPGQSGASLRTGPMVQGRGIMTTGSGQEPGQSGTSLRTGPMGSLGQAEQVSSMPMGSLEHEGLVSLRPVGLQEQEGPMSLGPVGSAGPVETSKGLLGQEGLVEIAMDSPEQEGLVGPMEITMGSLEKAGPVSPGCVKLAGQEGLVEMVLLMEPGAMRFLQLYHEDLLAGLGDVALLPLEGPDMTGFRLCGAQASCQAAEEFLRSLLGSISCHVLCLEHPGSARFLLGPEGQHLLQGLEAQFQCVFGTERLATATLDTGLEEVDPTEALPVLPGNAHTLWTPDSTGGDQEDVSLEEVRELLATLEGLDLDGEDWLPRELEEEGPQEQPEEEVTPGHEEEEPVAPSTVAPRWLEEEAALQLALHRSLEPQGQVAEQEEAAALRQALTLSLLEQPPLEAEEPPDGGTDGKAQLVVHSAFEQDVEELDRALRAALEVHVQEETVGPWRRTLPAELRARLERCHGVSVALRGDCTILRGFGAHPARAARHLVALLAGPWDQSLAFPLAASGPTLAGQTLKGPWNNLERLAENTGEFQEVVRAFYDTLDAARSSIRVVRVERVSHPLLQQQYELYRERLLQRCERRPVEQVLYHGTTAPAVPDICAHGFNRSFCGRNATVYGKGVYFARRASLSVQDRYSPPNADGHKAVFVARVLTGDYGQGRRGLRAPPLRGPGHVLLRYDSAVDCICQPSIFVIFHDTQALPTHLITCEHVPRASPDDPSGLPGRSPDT
UniProt Q13449: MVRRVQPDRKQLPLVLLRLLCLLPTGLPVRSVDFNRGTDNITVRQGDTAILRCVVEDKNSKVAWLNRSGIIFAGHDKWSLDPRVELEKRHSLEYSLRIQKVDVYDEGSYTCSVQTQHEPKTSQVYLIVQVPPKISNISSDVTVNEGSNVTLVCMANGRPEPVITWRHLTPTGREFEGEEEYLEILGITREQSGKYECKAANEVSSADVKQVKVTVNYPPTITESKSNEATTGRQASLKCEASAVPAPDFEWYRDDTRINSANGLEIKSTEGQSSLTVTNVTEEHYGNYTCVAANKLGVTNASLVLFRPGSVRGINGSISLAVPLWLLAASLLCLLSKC
UniProt P07766, whole entry: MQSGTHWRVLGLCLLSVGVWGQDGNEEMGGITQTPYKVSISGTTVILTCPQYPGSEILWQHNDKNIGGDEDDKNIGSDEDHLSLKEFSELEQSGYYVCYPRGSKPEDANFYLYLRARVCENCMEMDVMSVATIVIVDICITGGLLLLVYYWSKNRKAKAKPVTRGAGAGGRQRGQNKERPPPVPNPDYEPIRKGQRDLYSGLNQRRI

Target | NP40-soluble protein abundance (concentration: 0.1mM) | NP40-soluble protein abundance (concentration: 0.5mM)
E9PMJ2 and related entries (UniProt Q9BPY3) | 0.977 ± 0.024 | 0.969 ± 0.011
E3W994 and related entries (UniProt O75122) | 0.997 ± 0.045 | 1.13 ± 0.061
E7EXA6 and related entries (UniProt Q8WVB6) | 1.05 ± 0.023 | 1.24 ± 0.1
F5GWD3 and related entries (UniProt Q13889) | 1.03 ± 0.022 | 1.04 ± 0.064
E9PN10 and related entries (UniProt O00559) | 0.98 ± 0.07 | 0.933 ± 0.07
G3V1A6 and related entries (UniProt P57764) | 1.05 ± 0.051 | 1.05 ± 0.064
E7ESC7 and related entries (UniProt Q7L5Y9) | 0.98 ± 0.057 | 0.996 ± 0.07
F5H0U5 and related entries (UniProt Q9NZD2) | 0.879 ± 0.12 | 0.829 ± 0.17
F8VXU5 and related entries (UniProt Q9UBQ0) | 0.993 ± 0.072 | 0.96 ± 0.029
G3XAJ6 and related entries (UniProt Q14699) | 1.01 ± 0.032 | 0.993 ± 0.035
E9PGT6 and related entries (UniProt Q99627) | 0.993 ± 0.02 | 0.962 ± 0.039
E7EW50 and related entries (UniProt O75376) | 0.987 ± 0.024 | 1 ± 0.049
F8VQZ7 and related entries (UniProt P50579) | 1.007 ± 0.009 | 1.018 ± 0.0041
E9PK61 and related entries (UniProt O14681) | 1.03 ± 0.039 | 1.01 ± 0.061
E7ETR1 and related entries (UniProt Q8NCB2) | 0.978 ± 0.029 | 0.9736 ± 0.0026
E7ERY8 and related entries (UniProt O15014) | 1.027 ± 0.0035 | 1.02 ± 0.045
E9PB93 and related entries (UniProt O15514) | 0.905 ± 0.13 | 0.943 ± 0.037
F6XUP2 and related entries (UniProt O43861) | 1.01 ± 0.12 | 1.13 ± 0.16
E7EW84 and related entries (UniProt Q8TAG9) | 1.01 ± 0.059 | 0.971 ± 0.044
F5GZ90 and related entries (UniProt Q9NZJ0) | 0.989 ± 0.043 | 0.957 ± 0.034
E9PK67 and related entries (UniProt Q53GL7) | 1.03 ± 0.016 | 1 ± 0.038
F5H538 and related entries (UniProt Q9Y6R4) | 0.988 ± 0.0064 | 1.01 ± 0.048
E5RHG8 and related entries (UniProt Q15369) | 1.07 ± 0.097 | 0.971 ± 0.064
F8VNV8 and related entries (UniProt P54284) | 0.987 ± 0.18 | 1.1 ± 0.024
F5H5G1 and related entries (UniProt Q13449) | 0.991 ± 0.069 | 0.914 ± 0.022
E9PSH8 and related entries (UniProt P07766) | 1.02 ± 0.049 | 1.03 ± 0.037

Record cards (already shown).
E3W994 and related entries (UniProt O75122) as listed: NP40-soluble protein abundance (concentration: 0.1mM): 0.997 ± 0.045; NP40-soluble protein abundance (concentration: 0.5mM): 1.13 ± 0.061
E9PN10 and related entries (UniProt O00559) as listed: NP40-soluble protein abundance (concentration: 0.1mM): 0.98 ± 0.07; NP40-soluble protein abundance (concentration: 0.5mM): 0.933 ± 0.07
